Measured values from PubChem BioAssay AID720697 (Broad Institute, 2013).
Several values for one entry are separate records, joined by “and”; a condition that tells them apart may be missing. Equal entries are not always repeated. Inconclusive means that the source gave no clear call. Such entries were picked first, then a sample of the others. Activity calls are given as the source filed them.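 Rule for the calls: active = signal loss with fitted half-maximal concentration at or below twice the top valid tested dose in every test run; inconclusive = runs disagree, flat 30 to 70% signal loss, or poor fit; inactive = all runs flat, opposite direction, or potency beyond limit.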

Assay: general mammalian cell viability loss – inhibitor set, cherry-pick, set 2, cytotoxicity control for miR-122 modulator project, dose response (AID 720697);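 note: 0% = median of neutral control wells and -100% = MG132 positive control wells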
Settings: HEK293T viability, CellTiter-Glo luminescence, 48 h; at 26 µM (top of the series) unless noted

| Compound | activity change, negative = cytotoxicity |
| --- | --- |
| CC(C)C(=O)Nc1ccc2c(c1)C(=O)N(C)[C@@H]1CC[C@H](CC(=O)N[C@H](C)c3ccccc3)O[C@@H]1CO2 | inconclusive: -44.9% |
| COCC(=O)N1[C@H](CO)[C@@H](c2ccccc2)[C@H]1CN(C)C(=O)c1ccncc1 | inconclusive: 74.3% |
| Cc1ccccc1-c1ccc([C@@H]2[C@@H](CO)N3CCCCN(C(=O)Nc4ccc(F)cc4)C[C@@H]23)cc1 | inconclusive: -159% |
| CC(C)CC#Cc1ccc2c(c1)O[C@H](CN(C)C(=O)c1cnccn1)[C@H](C)CN([C@H](C)CO)S2(=O)=O | inconclusive: -53.7% |
| CSc1cccc(NS(=O)(=O)c2ccccc2)c1 | inconclusive: -1.48% [at 6 µM] |
| CCCNC(=O)C[C@H]1CC[C@@H]2[C@@H](COc3ccc(NC(=O)c4ccc(C(F)(F)F)cc4)cc3C(=O)N2C)O1 | inconclusive: -64.6% |
| CO[C@@H]1CN(C)C(=O)c2ccc(NC(=O)c3ccc(Oc4ccccc4)cc3)cc2OC[C@H](C)NC[C@@H]1C | inconclusive: -70% |
| C[C@@H]1CN([C@@H](C)CO)S(=O)(=O)c2ccc(C#Cc3ccccc3F)cc2O[C@H]1CN(C)C(=O)c1ccc2c(c1)OCO2 | inconclusive: -26.9% |
| COc1ccc(C#Cc2ccc3c(c2)O[C@H](CN(C)C(=O)CN2CCOCC2)[C@@H](C)CN([C@@H](C)CO)S3(=O)=O)cc1 | inconclusive: -49% |
| COCC(=O)N(C)C[C@@H]1[C@@H](c2ccccc2)[C@H](CO)N1C(=O)Cc1ccncc1 | inconclusive: -40.1% [at 23.5 µM] |
| CN1C(=O)c2cc(NC(=O)c3cccs3)ccc2OC[C@H]2O[C@H](CC(=O)NCCN3CCCCC3)CC[C@@H]21 | inconclusive: -35.4% |
| CO[C@H]1CN(C)C(=O)c2cc(NC(=O)Nc3cc(Cl)cc(Cl)c3)ccc2OC[C@H](C)NC[C@@H]1C | inconclusive: -150% |
| CCNC(=O)Nc1ccc2c(c1)C(=O)N(C)[C@H]1CC[C@H](CC(=O)NCCN3CCCC3)O[C@@H]1CO2 | inconclusive: -53.9% |
| CN(C)CC(=O)N1CCCCN2[C@@H](CO)[C@@H](c3ccc(/C=C/c4ccccc4)cc3)[C@@H]2C1 | inconclusive: -150% |
| CN1C(=O)c2cc(NC(=O)Nc3cccc(Cl)c3)ccc2OC[C@@H]2O[C@H](CC(=O)NCCc3ccncc3)CC[C@H]21 | inactive: 142% |
| COCCNC(=O)C[C@H]1CC[C@@H]2[C@H](COc3ccc(NC(=O)c4cnccn4)cc3C(=O)N2C)O1 | inconclusive: -60.5% [at 23.5 µM] |
| C[C@@H]1CN([C@@H](C)CO)S(=O)(=O)c2ccc(C#Cc3ccncc3)cc2O[C@@H]1CN(C)C(=O)C1CCOCC1 | inactive: 123% |

Grouped by structure: the entries above containing a Cl atom (two)

| Compound | activity change, negative = cytotoxicity |
| --- | --- |
| CO[C@H]1CN(C)C(=O)c2cc(NC(=O)Nc3cc(Cl)cc(Cl)c3)ccc2OC[C@H](C)NC[C@@H]1C | inconclusive: -150% |
| CN1C(=O)c2cc(NC(=O)Nc3cccc(Cl)c3)ccc2OC[C@@H]2O[C@H](CC(=O)NCCc3ccncc3)CC[C@H]21 | inactive: 142% |

Remaining list, next part:

| Compound | activity change, negative = cytotoxicity |
| --- | --- |
| COCC(=O)Nc1ccc2c(c1)C(=O)N(C)[C@H]1CC[C@@H](CC(=O)NCCCN(C)C)O[C@H]1CO2 | inactive: 72.5% |
| CN1C(=O)c2cc(NC(=O)c3ccc4c(c3)OCO4)ccc2OC[C@@H]2O[C@@H](CC(=O)O)CC[C@@H]21 | inactive: 14.4% |
| CNC(=O)C[C@@H]1CC[C@@H]2[C@@H](COc3ccc(NC(=O)c4ccccc4OC)cc3C(=O)N2C)O1 | inconclusive: -38.5% [at 23.5 µM] |
| Cc1noc(C)c1NC(=O)N(C)C[C@@H]1Oc2cc(C#CCC3CCCC3)ccc2S(=O)(=O)N([C@@H](C)CO)C[C@@H]1C | inconclusive: -86.9% |
| COCC(=O)N(C)C[C@H]1Oc2cc(C#Cc3cccnc3)ccc2S(=O)(=O)N([C@@H](C)CO)C[C@H]1C | inconclusive: 155% |
| CN(C[C@H]1N[C@@H](CO)[C@H]1c1ccc(-c2cccc(F)c2)cc1)C(=O)C1CCC1 | inconclusive: -52.2% |
| CCNC(=O)C[C@H]1CC[C@@H]2[C@H](COc3ccc(NC(=O)Nc4cccc(OC)c4)cc3C(=O)N2C)O1 | inconclusive: -45.3% |
| C[C@@H]1CN([C@@H](C)CO)C(=O)Cc2cc(NS(=O)(=O)c3ccc(F)cc3)ccc2O[C@H]1CN(C)Cc1ccc(Oc2ccccc2)cc1 | inconclusive: -27.6% |
| C/C=C/c1ccc([C@@H]2[C@@H](CN(C)C(=O)CC)N(C(=O)NC(C)C)[C@H]2CO)cc1 | inactive: 128% |
| C/C=C/c1ccc([C@@H]2[C@@H](CO)N[C@@H]2CN(C(=O)C2CCC2)C(C)C)cc1 | inconclusive: -35.3% [at 23.5 µM] |
| CN1C(=O)c2cc(NC(=O)c3cccc(F)c3)ccc2OC[C@@H]2O[C@H](CC(=O)NC3CCC3)CC[C@@H]21 | inconclusive: -33.9% and inactive: -10.6% |
| CC(=O)N(C)C[C@@H]1[C@@H](c2ccccc2)[C@H](CO)N1C(=O)C1CCC1 | inconclusive: -37.2% |
| CNC(=O)C[C@H]1CC[C@@H]2[C@@H](COc3ccc(NC(=O)C(C)C)cc3C(=O)N2C)O1 | inconclusive: 9.32% [at 23.5 µM] |
| CN(C)CCCNC(=O)C[C@H]1CC[C@H]2[C@H](COc3ccc(NS(C)(=O)=O)cc3C(=O)N2C)O1 | inconclusive: -29.8% [at 23.5 µM] |
| COCC(=O)NC[C@H]1[C@@H](c2ccc(C3=CCCC3)cc2)[C@H](CO)N1C(=O)C1CC1 | inconclusive: -36.8% |
| COCCNC(=O)C[C@H]1CC[C@@H]2[C@H](COc3ccc(NC(=O)C4CCOCC4)cc3C(=O)N2C)O1 | inconclusive: 0.891% |
| CCC(=O)N1C[C@H]2[C@@H](c3ccccc31)[C@H](CO)N2Cc1cc(F)ccc1F | inactive: 39.1% |
